# Out of some 220,000 compounds screened, about 770 (0.35%) were called active. Inconclusive results, whose numbers are uncertain, are shown with a selection of clear calls. Rule as the data show it: active = binding response below about 49% or above about 150%; inconclusive = no clear call, values can overlap the other calls; inactive = in between.
# By UniProt entry, the sequences of proteins in these tests, tags left out.
# UniProt P09471, whole entry, looked up: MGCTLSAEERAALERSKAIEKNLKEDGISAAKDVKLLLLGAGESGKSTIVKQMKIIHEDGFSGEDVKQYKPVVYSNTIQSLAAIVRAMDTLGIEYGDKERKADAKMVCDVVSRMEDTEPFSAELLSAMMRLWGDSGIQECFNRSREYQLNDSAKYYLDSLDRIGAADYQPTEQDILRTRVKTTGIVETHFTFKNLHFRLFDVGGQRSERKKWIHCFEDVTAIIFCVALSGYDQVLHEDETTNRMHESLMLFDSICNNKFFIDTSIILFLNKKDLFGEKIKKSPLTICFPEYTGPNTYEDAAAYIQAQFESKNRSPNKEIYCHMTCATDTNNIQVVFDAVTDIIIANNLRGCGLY
# Molecular target: Guanine nucleotide-binding protein G(o) subunit alpha (Homo sapiens) (UniProt P09471)
# Assay: RGS7-Galphao binding modulators, primary screen, biochemical, multiplexed bead flow cytometry (AID 1439);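 also: fluorescent Galphao held in activated GDP-AlF4 state binding bead-coupled RGS7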
# Details: at 10 µM, actives lie on both sides
row,Structure (SMILES),binding response (% of control)
1,Cc1ccc(NC(=O)NCC2CCN(Cc3cccc(Cl)c3)CC2)cc1Cl,inconclusive: 102%
2,O=C(COC(=O)CCc1nc2ccccc2c(=O)[nH]1)NC(c1ccccc1)c1ccccc1,inconclusive: 102%
3,CCOC(=O)Cc1csc(NC(=O)Cc2ccc(Br)cc2)n1,inconclusive: 283%
4,CCN(CC)S(=O)(=O)c1ccc(OCC(=O)NC2CCS(=O)(=O)C2)c([N+](=O)[O-])c1 (centres undefined),inconclusive: 82.3%
5,CCOC(=O)C1(Cc2cccc(OC)c2)CCN(CC(O)CO)CC1 (centres undefined),inconclusive: 85.7%
6,O=C(CCCn1nnc2ccccc2c1=O)N[C@H](C(=O)O)c1ccccc1,inconclusive: 60.8%
7,CCOC(=O)c1cc2cc([N+](=O)[O-])ccc2oc1=O,inconclusive: 148%
8,CCN1CCCC(Sc2nc3c([nH]2)c(=S)n(C)c(=O)n3C)C1 (centres undefined),inconclusive: 89.2%
9,N#C/C(=C\c1cccc(Cl)c1)C(=O)c1ccccc1,inconclusive: 153%
10,O=S(=O)(NCCC1CC1(Cl)Cl)c1ccccc1 (centres undefined),inconclusive: 251%
11,COC(=O)[C@H](C)NC(=O)Nc1cccc(Br)c1,inconclusive: 113%
12,CC(C)c1cccc(C(C)C)c1NC(=O)c1ccc(OCC(=O)NCc2ccccc2)cc1,inactive: 101%
13,Cc1cc(C)c(S(=O)(=O)N2CCOC2CNC(=O)C(=O)NCCCn2ccnc2)c(C)c1 (centres undefined),inconclusive: 101%
14,Fc1ccc(-c2csc(-c3ccccn3)n2)cc1F,inactive: 106%
15,N#Cc1cnc2cc(-c3ccccc3)nn2c1N,inconclusive: 99%
16,Nc1ccccc1-n1cccc1,inconclusive: 136%
17,Cc1cc(C)c(C(=O)C[n+]2cccc(C(N)=O)c2)c(C)c1,inconclusive: 47.2%
18,Cc1cccc(C(=O)NCC(=O)OCC(=O)N2CCc3ccccc32)c1,inconclusive: 100%
19,Cn1nc(-c2ccc(Cl)cc2)cc1NC(=O)CC(C)(C)CC(=O)O,inconclusive: 106%
20,Cc1ccc2c(c1)COc1c3ccc(C(=O)N4CCCCC4)cc3nn1-2,inconclusive: 92.6%
21,Cc1cccc(N2CCN(C(=O)CN3C(=O)C4CC=CCC4C3=O)CC2)c1C (centres undefined),inactive: 96.9%
22,COc1ccc(OC)c(Nc2nc(N)nc(CCl)n2)c1,inconclusive: 64.5%
23,O=C(c1cnn2c(C(F)(F)F)cc(-c3ccccc3)nc12)N1CCCCC1c1cccnc1 (centres undefined),inconclusive: 96.6%

# Individual results from the list:
# Value for Cn1nc(-c2ccc(Cl)cc2)cc1NC(=O)CC(C)(C)CC(=O)O under binding response (% of control): inconclusive: 106%
# Value for Cc1cc(C)c(S(=O)(=O)N2CCOC2CNC(=O)C(=O)NCCCn2ccnc2)c(C)c1 (centres undefined) under binding response (% of control): inconclusive: 101%
# Value for CC(C)c1cccc(C(C)C)c1NC(=O)c1ccc(OCC(=O)NCc2ccccc2)cc1 under binding response (% of control): inactive: 101%

# Next structures follow.

row,Structure (SMILES),binding response (% of control)
1,N#C/C(C(=O)NCc1ccccc1)=C1/N=C(NC(=O)c2ccco2)c2ccccc21,inconclusive: 8.43%
2,CCNC(=O)C1Cc2ccccc2CN1S(=O)(=O)c1ccc(F)cc1 (centres undefined),inconclusive: 97.9%
3,O=C(Nc1ccc(Cl)c(Cl)c1)c1cccc(S(=O)(=O)NCc2cccnc2)c1,inactive: 98.9%
4,CCCCC(O)(CCCC)C(=O)NN(C(=O)OC)c1ccc(C)cc1,inconclusive: 97.7%
5,O=C(CN1CCN(S(=O)(=O)c2ccc(Br)cc2)CC1)N/N=C/c1ccc(Br)s1,inactive: 114%
6,CSc1nc2ccsc2c(=O)n1-c1ccccc1,inconclusive: 120%
7,O=C(NCCNc1nccc(C(F)(F)F)n1)c1cccc(C(F)(F)F)c1,inconclusive: 177%
8,CCOC(=O)c1ccc(NC(=O)c2nc[nH]c2C(=O)N[C@H](C)c2ccccc2)cc1,inconclusive: 101%
9,Nc1ccccc1C(=O)NNC1=C(C(=O)C(F)(F)F)CCC1,inconclusive: 103%
10,CCOc1ccc(S(=O)(=O)Nc2nc3ccccc3nc2-n2ccc(=NC(=O)c3ccccc3C)cc2)cc1,inconclusive: 94.3%
11,CCC1=C(OC(=O)N(CC)CC)N2C(=O)OC(=NCCc3c[nH]c4ccccc34)[C@]2(C)[C@H]2C1=CC[C@H]1C(=O)NC(=O)[C@H]12,inconclusive: 59.7%
12,O=C(O)c1cc(N/N=C/c2ccncc2)ccc1Cl,inconclusive: 120%
13,COc1ccc(/C=N/NC(N)=S)cc1,inconclusive: 90.2%
14,N/C(CC(=O)Nc1ccc(F)cc1F)=N\OC(=O)c1cccs1,inconclusive: 21.1%
15,CC(C)C[C@H](NC(=O)c1[nH]cnc1C(=O)N[C@@H](C)C(=O)OC(C)(C)C)C(=O)OC(C)(C)C,inconclusive: 78.6%
16,COc1ccc(Oc2nc(-c3ccncc3)nc3ccccc23)cc1,inconclusive: 178%
17,COc1cc([N+](=O)[O-])cc2sc(NC(=O)c3c(F)cccc3F)nc12,inactive: 96.5%
18,COc1cccc(COc2cc3ccccc3nc2C)c1,inactive: 90.1%
19,CN(C)NC(=S)Nc1cccc(Cl)c1,inconclusive: 53.9%
20,N#Cc1ccc(/C=C\c2nccc3c2[nH]c2ccccc23)cc1,inconclusive: 120%
21,CCCCC(=O)N(c1ccc(C(=O)O)cc1)c1nc(-c2ccc(Cl)cc2)c(CC)s1,inactive: 107%
22,O=C(NCCSc1ccc(Cl)cc1)c1ccc(CN2CCOCC2)cc1,inactive: 97.3%
23,CC(=O)c1sc(=S)n(-c2ccccc2)c1C,inconclusive: -265%

row,Structure (SMILES),binding response (% of control)
1,COc1ccc(/C=C2\Oc3cc(OC(=O)N4CCOCC4)ccc3C2=O)c(OC)c1,inconclusive: -181%
2,CC(=O)NC1=NC(=O)/C(=C/c2cn(C(C)=O)nc2-c2ccccc2)S1,inconclusive: 102%
3,Cc1ccc(S(=O)(=O)c2c[nH]c3cc4c(cc3c2=O)OCO4)cc1,inconclusive: 99.5%
4,Cc1cc([N+](=O)[O-])nn1CC(=O)NCCCn1ccnc1,active: 269% [activator]
5,CC(C)c1ccccc1NC(=S)N(C)C,inconclusive: 207%
6,CNc1ccccc1C(C)(C)c1cc(-c2cccc([N+](=O)[O-])c2)no1,inconclusive: 101%
7,O=C1C=C(NCCOC23CC4CC(CC(C4)C2)C3)C2(CCCCC2)O1,inactive: 96.2%
8,COc1cc(NC(=S)N2CCOCC2)c(OC)cc1Cl,inconclusive: 111%
9,CC(Oc1ccc2c(=O)c(-c3ccc(Cl)cc3)c(C(F)(F)F)oc2c1)C(=O)O (centres undefined),inconclusive: 93.2%
10,N#C/C(=C\c1ccc(N2CCCCC2)o1)C(=O)Nc1cccc(Br)c1,inactive: 141%
11,Cc1ccsc1/C=N/n1c(-c2cc(-c3ccccc3)n[nH]2)n[nH]c1=S,inconclusive: -127%
12,NC(=S)N/N=C1\CCOc2ccc(F)cc21,inconclusive: 114%
13,CCCCCCCC(=O)NNC(=O)c1c(O)c2ccccc2[nH]c1=O,inconclusive: 101%
14,COC(=O)c1nn(-c2ccc(OC)cc2)c(=O)c2c(N)sc(C)c12,inactive: 106%
15,O=C1/C(=C\c2ccccn2)SC(=S)N1c1ccc(S(=O)(=O)Nc2nccs2)cc1,inconclusive: 110%
16,Cn1c(=O)c2c(n(Cc3ccccc3)c1=O)NC(=O)C2CC(=O)N1CCc2ccccc2C1 (centres undefined),active: 13.5%
17,Cc1ccc2nsnc2c1NC(=O)c1ccc([N+](=O)[O-])cc1,inconclusive: 116%
18,O=C(NCCc1c[nH]c2ccccc12)C(=O)NCC1OCCCN1S(=O)(=O)c1cc(F)ccc1F (centres undefined),inactive: 100%
19,COc1ccc(CNC(=O)CS(=O)CC(=O)O)cc1OC (centres undefined),inconclusive: 84.6%
20,COc1ccc(/C=N/N=C2/NC(=O)C(CC(=O)O)S2)cc1OS(=O)(=O)c1ccccc1 (centres undefined),inconclusive: 96.2%
21,S=c1[nH]nc(-c2cccs2)n1/N=C/c1cn(-c2ccccc2)nc1-c1cccs1,inconclusive: 99.6%
22,CCCCn1nnnc1SCC(=O)Nc1ccc(N(C)C)cc1,inactive: 102%
23,COc1ccc(CN2CCN(Cc3ccon3)CC2CCO)c(C)c1C (centres undefined),inconclusive: 101%

row,Structure (SMILES),binding response (% of control)
1,COc1cccc(C(=O)N2CCN(Cc3nc(CC4CC4)no3)CC2)c1,inconclusive: 262%
2,O=C(c1cc2c(s1)CCCC2)N1CCN(S(=O)(=O)c2ccccc2C(F)(F)F)CC1,inactive: 103%
3,CCOc1cc(/C=N\Nc2ncc(F)c(N3CCOCC3)n2)ccc1Oc1nc(Cl)ncc1F,inconclusive: 108%
4,[N-]=C=C1C(=S)NC(=O)[C@H]([n+]2ccccc2)[C@H]1c1ccc(Cl)cc1,inconclusive: -1.26%
5,CC(=O)Nc1ccc(S(=O)(=O)N2C(=O)c3cccc4cccc2c34)cc1,inconclusive: 86.7%
6,COc1ccc(CC(=O)NCCC(C)C)cc1S(=O)(=O)N1CCOCC1,inactive: 100%
7,O=C(Nc1cnn(Cc2ccc(Cl)cc2)c1)c1cccs1,inconclusive: 121%
8,COC(=O)COc1cccc(/C=N/NC(=O)CCSc2ccccc2)c1,inactive: 97.9%
9,Cc1scc(C(=O)NNC(=S)NCC2CCCO2)c1-c1ccccc1 (centres undefined),inactive: 99.7%
10,Cc1cc(C)c2c(N)c(C(=O)NN3CC(=O)N(c4cccc(Cl)c4)CC3=O)sc2n1,inconclusive: 124%
11,CC(=O)Nc1sc2c(c1C(c1cccc(Cl)c1)N1CCN(CCO)CC1)CCCC2 (centres undefined),inconclusive: 123%
12,O=C(NCCc1ccccc1)c1ccco1,inactive: 107%
13,O=C(O)CNC(=O)c1ccccc1Br,inactive: 94.2%
14,COc1ccc(-c2ocnc2C(=O)Nc2ccccc2N2CCCCC2)cc1,active: 230% [activator]
15,CN(C)/C=C(/C(=O)c1ccc(Cl)c(Cl)c1)c1nnnn1-c1ccccc1,inconclusive: 144%
16,O=C(O)c1ccccc1CSc1nc2ccccc2n1Cc1ccccc1C(=O)O,inactive: 99.9%
17,CC(C)(C)NC1=CC(=O)OC12CCCCC2,inactive: 93.4%
18,O=C(CSc1nncc2ccccc12)Nc1cccc(C(=O)O)c1,inconclusive: 72.2%
19,COc1ccc(C2=CC(=O)CC(c3ccccc3)C2)cc1 (centres undefined),inconclusive: 95.2%
20,OCC[C@H]1C[C@@H](O)[C@H](O)[C@]2(CCCCO2)O1,inconclusive: 126%

# Sorted by molecular weight (ascending): some entries from above
row,Structure (SMILES),binding response (% of control)
12,O=C(NCCc1ccccc1)c1ccco1,inactive: 107%
20,OCC[C@H]1C[C@@H](O)[C@H](O)[C@]2(CCCCO2)O1,inconclusive: 126%
10,Cc1cc(C)c2c(N)c(C(=O)NN3CC(=O)N(c4cccc(Cl)c4)CC3=O)sc2n1,inconclusive: 124%
3,CCOc1cc(/C=N\Nc2ncc(F)c(N3CCOCC3)n2)ccc1Oc1nc(Cl)ncc1F,inconclusive: 108%

# Source: PubChem BioAssay AID1439 (NMMLSC, 2008)
